Among all 320,000 compounds or so, about 22,000 (6.9%) were called active. Calls follow the shape of the dose curve; as a rule, active = well fitted inhibition curve with a large enough effect; inconclusive = small, poorly fitted or top-dose-only effect, or another doubt; inactive = no such curve, though single readings can be large or run the other way. Inconclusive results, whose numbers are uncertain, are shown. Potencies beside an inconclusive call are fits to weak or partial responses and may not hold up.
assay: Primary qHTS for delayed death inhibitors of the malarial parasite plastid, 96 hour incubation; details: P. falciparum luciferase reporter growth; series mostly up to 28.7 µM
Procedure, shortened: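 Two-generation exposure (96 h) targets delayed-death phenotype. Reporter parasites carrying integrated firefly luciferase, in red cells at 2% hematocrit and 0.05% parasitemia final, kept at 37 C, 5% CO2; luminescence loss indicates inhibition.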
Potency is read from the fitted curve at half-maximal effect.

Question: Which Potency does the source give for `O=C(CSc1ncnc2sccc12)N1CCN(C(=O)c2cccs2)CC1` here?
Answer: inconclusive: 2.08 µM [inhibitor, full curve]
